Results from ChEMBL document CHEMBL4043309, “Computer-Aided Discovery and Characterization of Novel Ebola Virus Inhibitors” (J Med Chem, 2018).

Assay: cells
Assay type: cell-based, Ebolavirus
Conditions: Orthoebolavirus, HeLa, 4.5 h

SMILES	IC50
CC/C(=C(\c1ccccc1)c1ccc(OCCN(C)C)cc1)c1ccccc1 [TAMOXIFEN]	0.73 µM
CC(C)(C)c1ccc(C(=O)CCCN2CCC(OC(c3ccccc3)c3ccccc3)CC2)cc1 [EBASTINE]	9.56 µM
